Experimental findings from paper PMC9844227 are described below.

No constants are given. Whether binding was seen depends on the method and setting. Binding seen in cells or lysates may run through a third protein. Some binding calls cover weakened binding; strength is not graded here. Sequences can lack the tags named with a protein.

Experiment [1] has as its target T1, FLAG-malin (mouse (endogenous in C57BL/6J knock-in mice)) (UniProt Q8BR37).
T1 sequence: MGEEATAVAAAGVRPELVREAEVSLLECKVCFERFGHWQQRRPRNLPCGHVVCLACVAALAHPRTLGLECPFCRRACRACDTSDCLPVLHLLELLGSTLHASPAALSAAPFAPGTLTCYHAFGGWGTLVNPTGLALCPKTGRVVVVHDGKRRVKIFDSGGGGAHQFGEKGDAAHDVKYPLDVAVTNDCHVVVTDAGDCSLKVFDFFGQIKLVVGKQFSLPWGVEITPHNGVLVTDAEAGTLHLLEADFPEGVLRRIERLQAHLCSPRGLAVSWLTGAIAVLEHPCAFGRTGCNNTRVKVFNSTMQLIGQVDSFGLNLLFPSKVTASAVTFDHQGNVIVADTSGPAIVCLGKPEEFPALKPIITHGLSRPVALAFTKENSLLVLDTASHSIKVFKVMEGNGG
The experiment in a line: co-IP; IP with anti-FLAG antibody and protein G agarose from the glycogen-enriched high-speed pellet (HSP, 100,000 g) of skeletal muscle of Malin^FLAG/FLAG mice; 700 ug protein; blot with anti-laforin.

Experiment [2] concerns the target T1, FLAG-malin (mouse (endogenous in C57BL/6J knock-in mice)). The experiment in a line: co-IP; IP with anti-FLAG antibody and protein G agarose from low-speed supernatant (LSS, 700 ug protein) of skeletal muscle, heart, liver and brain of Malin^FLAG/FLAG mice; overnight at 4 C; washes in PBST; blot with anti-laforin.
Experiment [3] addresses T2, laforin (mouse (endogenous in mouse tissues)) (UniProt Q9WUA5).
T2 sequence: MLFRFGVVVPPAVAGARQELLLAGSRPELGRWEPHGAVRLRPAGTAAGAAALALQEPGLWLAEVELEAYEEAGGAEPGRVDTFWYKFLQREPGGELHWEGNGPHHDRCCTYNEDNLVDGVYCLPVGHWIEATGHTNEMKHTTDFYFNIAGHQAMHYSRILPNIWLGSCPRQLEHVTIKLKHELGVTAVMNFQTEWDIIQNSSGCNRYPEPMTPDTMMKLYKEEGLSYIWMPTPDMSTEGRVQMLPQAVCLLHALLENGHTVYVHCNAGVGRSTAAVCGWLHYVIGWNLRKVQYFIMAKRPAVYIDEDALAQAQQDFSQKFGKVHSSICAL
The experiment in a line: co-IP; reverse co-IP: IP with anti-laforin antibody and protein G agarose from LSS (700 ug protein) of skeletal muscle, heart, liver and brain of Malin^FLAG/FLAG mice; overnight at 4 C; washes in PBST; blot with anti-FLAG.

B1: laforin (protein, UniProt Q9WUA5 1-330)
chain: T2 sequence
Consider B1, for which the binding entry in experiment [1] and in experiment [2] was “binds” throughout.

B2: FLAG-malin (protein, UniProt Q8BR37 1-401)
chain: T1 sequence
On to B2, for which the binding entry in experiment [3] is “binds”.
